These results are taken from the supplement of paper PMC8256030.

Assay [1] has as its system SARS-CoV-2 -1 PRF reporter mCherry-FSE-GFP(-1). The experiment in a line: mCherry (red) intensity as percent of control; higher = higher upstream reporter expression. The conditions noted are these: 10 µM; 24 h; HEK293T.
For assay [2] the test system is unchanged. In words: percent effect, decrease of GFP/mCherry ratio (-1 PRF reporter) relative to controls; higher = stronger frameshift inhibition. The conditions noted are these: 10 µM; 24 h; HEK293T.

“And” between values parts separate entries of the source, which are not always exact repeats. Identical values can stand only once. The list shows a part of the results. This data set is noisy: repeats of one test often differ as much as different tests do.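 HEK293T cells were given each compound shortly before transfection with a reporter in which red mCherry is followed by the SARS-CoV-2 frameshift element and then GFP in the −1 frame, so GFP appears only after frameshifting.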

As for `COc1cc2c(cc1OC)CC(=O)N(CCCN(C)C[C@H]1Cc3cc(OC)c(OC)cc31)CC2` [ivabradine], the mCherry in assay [1] turned out to be 107%. Further, the percent effect in assay [2] is -0.655%.

Consider `CCCOc1ccc(S(=O)(=O)NCCC2CCCN2C)cc1-c1nc2c(CCC)nn(C)c2c(=O)[nH]1` (centres undefined) [udenafil], for which the mCherry in assay [1] came out at 88%. Also, the percent effect in assay [2] was -0.341%.

In assay [1], `COCc1c(C(C)C)nc(C(C)C)c(/C=C/[C@@H](O)C[C@@H](O)CC(=O)O)c1-c1ccc(F)cc1` [Cerivastatin] registered a mCherry of 131%. In addition, the percent effect in assay [2] is 2.33%.

In the case of `COC(=O)CCNC(=O)[C@@H]1CSC(C)N1` (some centres undefined) [alonacic], the mCherry in assay [1] is 99.4%. Besides, the percent effect in assay [2] was -5.37%.

In turn, `CN[C@@H]1[C@H](O[C@H]2[C@H](O[C@H]3[C@H](O)[C@@H](O)[C@H](N=C(N)N)[C@@H](O)[C@@H]3N=C(N)N)O[C@@H](C)[C@]2(O)CO)O[C@@H](CO)[C@H](O)[C@H]1O` had a mCherry in assay [1] of 109%. For the same compound, the percent effect in assay [2] is -9.13%.

Consider `Nc1ccc(S(=O)(=O)Nc2ncccn2)cc1` [sulfadiazine], for which the mCherry in assay [1] was 117% and 123%. For the same compound, the percent effect in assay [2] is 0.885% and 7.04%.

With `CC1(C)S[C@@H]2[C@H](N3C(=O)[C@@H](c4ccccc4)NC3(C)C)C(=O)N2[C@H]1C(=O)O`, the mCherry in assay [1] came to 110%. In addition, the percent effect in assay [2] is -0.488%.

In assay [1], `CC1(C)S[C@@H]2[C@H](NC(=O)[C@H](C(=O)O)c3ccsc3)C(=O)N2[C@H]1C(=O)O` [Ticar] came in with a mCherry of 112%. Besides, the percent effect in assay [2] was -4.72%.

In assay [1], `Cc1cc(N)c2cc(NC(=O)Nc3ccc4nc(C)cc(N)c4c3)ccc2n1` [aminoquinuride] registered a mCherry of 100%. Besides, the percent effect in assay [2] is -0.109%.

With `CCOC(=O)[C@H](CCc1ccccc1)N[C@@H](C)C(=O)N1CC2(C[C@H]1C(=O)O)SCCS2` [Spirapril], in assay [1], the mCherry came to 95.5%. Also, in assay [2], the percent effect was determined as 0.209%.

As to `CCc1nn(CCCN2CCN(c3cccc(Cl)c3)CC2)c(=O)n1CC` [etoperidone], the mCherry in assay [1] is 96.9%. For the same compound, the percent effect in assay [2] is -0.624%.

`COc1ccc2nc3cc(Cl)ccc3c(Nc3cc(CN4CCCC4)c(O)c(CN4CCCC4)c3)c2n1`: the mCherry in assay [1] stood at 134%. Further, the percent effect in assay [2] was -0.179%.

Compound `CCC[C@H](NC(=O)[C@@H]1[C@H]2CCC[C@H]2CN1C(=O)[C@@H](NC(=O)[C@@H](NC(=O)c1cnccn1)C1CCCCC1)C(C)(C)C)C(=O)C(=O)NC1CC1` [Incivik] yielded a mCherry in assay [1] of 101%. The percent effect in assay [2] is -3.61%.

Take `NC(N)=Nc1nc(CSCCN/C=N/S(=O)(=O)c2ccc(Br)cc2)cs1` [ebrotidine]: the mCherry in assay [1] is 81.7%. In addition, the percent effect in assay [2] turned out to be 1.43%.

Consider `CN(C/C=C/c1ccccc1)Cc1cccc2ccccc12`, for which, in assay [1], the mCherry was found to be 87.2%. Besides, in assay [2], the percent effect was -3.34%.

As for `C[C@H](N)C(=O)N[C@@H](C)C(=O)N[C@H]1[C@@H]2CN(c3nc4c(cc3F)c(=O)c(C(=O)O)cn4-c3ccc(F)cc3F)C[C@@H]21` [alatrofloxacin], the mCherry in assay [1] was determined as 105%. Besides, the percent effect in assay [2] turned out to be 1.81%.

Consider `CC(CN1c2ccccc2Sc2cccnc21)N(C)C` (centres undefined) [isothipendyl], for which the mCherry in assay [1] stood at 88.1%. The percent effect in assay [2] is -3.01%.

Turning to `CCCCC(CC)CCC(CC(C)C)OS(=O)(=O)O` (centres undefined), the mCherry in assay [1] came out at 102%. In assay [2], the percent effect turned out to be 0.382%.

For `OC(CNCC(O)C1CCc2cc(F)ccc2O1)C1CCc2cc(F)ccc2O1` (centres undefined) [nebivolol], in assay [1], the mCherry is 153% and 146%. Further, the percent effect in assay [2] was -6.55% and -3.99%.

With `CCCCC[C@](C)(O)/C=C/[C@@H]1[C@@H](C/C=C\CCCC(=O)O)[C@@H](O)C[C@H]1O` [Carboprost Tromethamine], the mCherry in assay [1] worked out at 88%. Moreover, in assay [2], the percent effect was -3.62%.

As for `O=c1[nH]c2ccccc2c(=O)n1CCCN1CCN(c2cccc(Cl)c2)CC1` [cloperidone], the mCherry in assay [1] was found to be 103%. Also, the percent effect in assay [2] was -5.31%.

Turning to `CN(C)CCc1c[nH]c2ccc(C[C@H]3COC(=O)N3)cc12` [zolmitriptan], the mCherry in assay [1] was determined as 103%. Also, the percent effect in assay [2] is -0.298%.
